# PubChem BioAssay AID493246, Drosophila RNAi Screening Center, 2011
# Aim: 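Genome-wide search for dsRNAs that reduce cell number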 (primary screen)
# System: Drosophila Kc and S2R+ cells
# Knock-down reagent: long dsRNA against Drosophila genes
# Detection: 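Cell number per well after knock-down, printed as raw plate values; calls were based on per-plate z-scores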
# Direction: Kc cell number and S2R+ cell number: higher = more cells remaining
# Active means: 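Active when the per-plate z-score of cell number is 3 or more in the direction of fewer cells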
# In all, the deposit lists about 21,000 reagents; this is a random part of those that have a named target and a result. In the full data, 429 (2%) got an active call. 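Values are raw and not normalised between plates; calls rest on per-plate z-scores that were not deposited.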 Unmarked entries are inactive. Reagents against one gene are numbered here. A plus sign joins genes that one reagent is predicted to hit. Reagent sequences are not shown. Not stated in the record: the amount of reagent, the time to read-out.
gene knocked down,reagent no.,"Kc cell number, rep 1","Kc cell number, rep 2","S2R+ cell number, rep 1","S2R+ cell number, rep 2"
Sk1 (Sphingosine kinase 1),1,1.56e6,1.52e6,9.46e5,9.91e5
GAPcenA (GTPase activating protein and centrosome-associated),1,1.49e6,1.25e6,1.08e6,1.21e6
kibra,1,1.34e6,1.39e6,1.27e6,1.33e6
kibra,2,1.98e5 (active),2.66e5,5.13e5,5.98e5
Ssl1 (Suppressor of stem-loop mutation),1,1.75e6,1.73e6,1.28e6,1.31e6
CG15167,1,1.52e6,1.59e6,1.25e6,2.97e5
CG5399,1,1.26e6,1.35e6,1.15e6,1.24e6
FASN2 (Fatty acid synthase 2),1,1.61e6,1.62e6,1.14e6,1.30e6
FASN2 (Fatty acid synthase 2),2,1.37e6,1.35e6,1.05e6,1.16e6
Osi4 (Osiris 4),1,1.58e6,1.61e6,1.29e6,1.49e6
rb (ruby),1,1.70e6,1.65e6,1.10e6,1.24e6
Trp1 (Translocation protein 1),1,1.48e6,1.48e6,1.16e6,1.28e6
Nha2 (Na[+]/H[+] hydrogen antiporter 2),1,1.40e6,1.45e6,1.01e6,1.10e6
Nha2 (Na[+]/H[+] hydrogen antiporter 2),2,1.39e6,1.63e6,9.08e5,1.05e6
Nha2 (Na[+]/H[+] hydrogen antiporter 2),3,1.52e6,1.47e6,1.00e6,1.07e6
DUBAI (Deubiquitinating apoptotic inhibitor),1,1.28e6,1.32e6,1.12e6,1.16e6
caup (caupolican),1,1.51e6,1.48e6,8.61e5,9.85e5
VhaM9.7-a (Vacuolar H[+] ATPase M9.7 subunit a),1,1.55e6,1.53e6,1.09e6,1.21e6
ARY (retired record),1,1.21e6,1.59e6,1.20e6,1.18e6
CG6012,1,1.65e6,1.65e6,1.36e6,1.49e6
Kul (Kuzbanian-like),1,1.40e6,1.42e6,9.83e5,1.06e6
CG9588,1,1.18e6,1.26e6,1.13e6,1.26e6

Ordered by “S2R+ cell number, rep 2” (high to low): some entries from above.
gene knocked down,reagent no.,"Kc cell number, rep 1","Kc cell number, rep 2","S2R+ cell number, rep 1","S2R+ cell number, rep 2"
Osi4 (Osiris 4),1,1.58e6,1.61e6,1.29e6,1.49e6
FASN2 (Fatty acid synthase 2),1,1.61e6,1.62e6,1.14e6,1.30e6
Trp1 (Translocation protein 1),1,1.48e6,1.48e6,1.16e6,1.28e6
rb (ruby),1,1.70e6,1.65e6,1.10e6,1.24e6
FASN2 (Fatty acid synthase 2),2,1.37e6,1.35e6,1.05e6,1.16e6

More records:
gene knocked down,reagent no.,"Kc cell number, rep 1","Kc cell number, rep 2","S2R+ cell number, rep 1","S2R+ cell number, rep 2"
Obp19c (Odorant-binding protein 19c),1,1.73e6,1.76e6,1.00e6,1.19e6
Rbcn-3A (Rabconnectin-3A),1,1.53e6,1.50e6,1.10e6,1.21e6
Fas1 (Fasciclin 1),1,1.47e6,1.45e6,1.04e6,1.14e6
CG6961 + CG18259,1,1.48e6,1.47e6,1.05e6,1.13e6
CG6961 + CG18259,2,1.63e6,1.69e6,1.08e6,1.19e6
CG33792,1,1.75e6,1.81e6,1.07e6,1.33e6
CG9550,1,1.63e6,1.54e6,1.23e6,1.42e6
CG33769,1,1.84e6,1.78e6,1.27e6,1.56e6
CG31368,1,1.50e6,1.60e6,1.34e6,1.46e6
CG31368,2,1.45e6,1.56e6,1.22e6,1.26e6
Arp5 (Actin-related protein 5),1,1.60e6,1.75e6,1.31e6,1.38e6
Cpr47Ea (Cuticular protein 47Ea),1,1.53e6,1.54e6,1.23e6,1.37e6
CG16711,1,1.25e6,1.30e6,1.22e6,1.32e6
CG5151,1,1.47e6 (active),1.51e6,7.58e5,8.29e5
CG34026,1,1.29e6,1.46e6,1.07e6,1.08e6
Cyp4d1 (Cytochrome P450 4d1),1,1.26e6,1.57e6,1.05e6,1.09e6
Cyp4d1 (Cytochrome P450 4d1),2,1.61e6,1.62e6,1.04e6,1.19e6
Inx7 (Innexin 7),1,1.49e6,1.46e6,1.00e6,1.10e6
CG32532,1,1.53e6,1.56e6,1.08e6,1.24e6
CG32532,2,1.55e6,1.56e6,1.10e6,1.21e6
CG32532,3,1.56e6,1.58e6,1.11e6,1.25e6
tkv + CR14033 + tRNA:Asp-GTC-2-1 + 1 more,1,1.35e6,1.32e6,9.60e5,1.13e6
U3-55K (U3 small nuclear riboprotein factor 55K),1,1.58e6,1.61e6,1.32e6,1.42e6
CG8157,1,1.82e6,1.95e6,1.52e6,1.65e6
Mic26-27 (MICOS subunit 26/27),1,1.58e6,1.59e6,1.19e6,1.24e6
CG5386,1,1.37e6,1.59e6,8.35e5,9.52e5
Nadk1a (NAD kinase 1a),1,1.48e6,1.45e6,9.83e5,1.11e6
Nadk1a (NAD kinase 1a),2,1.42e6,1.47e6,1.15e6,1.20e6
CG32599,1,5.60e5,,7.72e5,
Msh6,1,1.32e6,1.42e6,1.33e6,1.24e6
Klp54D (Kinesin-like protein at 54D),1,1.50e6,1.59e6,1.19e6,1.29e6
Cpsf100 (Cleavage and polyadenylation specificity factor 100),1,5.91e5,,8.73e5,
Cchl (Cytochrome c heme lyase),1,1.44e6,1.53e6,1.06e6,1.09e6
SerRS (Seryl-tRNA synthetase),1,1.25e6,1.43e6,1.17e6,1.25e6
mRpS6 (mitochondrial ribosomal protein S6),1,1.59e6,1.50e6,9.89e5,1.14e6
CG1090,1,1.75e6,1.77e6,1.34e6,1.42e6
CG11060,1,1.48e6,1.50e6,1.19e6,1.27e6
